According to the supplement of paper PMC10849652:
The list shows a part of the results.

Chains of the proteins cited; added tags and fusions are not shown. Lines headed by an entry give the natural chain unless they say otherwise; changes in a name come on top.
UniProt Q8N7R7: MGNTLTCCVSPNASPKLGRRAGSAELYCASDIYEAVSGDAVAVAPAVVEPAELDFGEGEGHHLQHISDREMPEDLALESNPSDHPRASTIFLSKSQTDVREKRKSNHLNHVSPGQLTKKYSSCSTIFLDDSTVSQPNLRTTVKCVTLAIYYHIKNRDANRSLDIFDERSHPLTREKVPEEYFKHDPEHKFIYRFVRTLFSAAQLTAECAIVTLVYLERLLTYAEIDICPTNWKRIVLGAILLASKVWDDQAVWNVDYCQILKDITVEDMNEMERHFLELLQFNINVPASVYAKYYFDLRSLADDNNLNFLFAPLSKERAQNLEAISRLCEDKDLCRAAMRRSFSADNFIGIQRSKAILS
UniProt Q13191, whole entry, looked up: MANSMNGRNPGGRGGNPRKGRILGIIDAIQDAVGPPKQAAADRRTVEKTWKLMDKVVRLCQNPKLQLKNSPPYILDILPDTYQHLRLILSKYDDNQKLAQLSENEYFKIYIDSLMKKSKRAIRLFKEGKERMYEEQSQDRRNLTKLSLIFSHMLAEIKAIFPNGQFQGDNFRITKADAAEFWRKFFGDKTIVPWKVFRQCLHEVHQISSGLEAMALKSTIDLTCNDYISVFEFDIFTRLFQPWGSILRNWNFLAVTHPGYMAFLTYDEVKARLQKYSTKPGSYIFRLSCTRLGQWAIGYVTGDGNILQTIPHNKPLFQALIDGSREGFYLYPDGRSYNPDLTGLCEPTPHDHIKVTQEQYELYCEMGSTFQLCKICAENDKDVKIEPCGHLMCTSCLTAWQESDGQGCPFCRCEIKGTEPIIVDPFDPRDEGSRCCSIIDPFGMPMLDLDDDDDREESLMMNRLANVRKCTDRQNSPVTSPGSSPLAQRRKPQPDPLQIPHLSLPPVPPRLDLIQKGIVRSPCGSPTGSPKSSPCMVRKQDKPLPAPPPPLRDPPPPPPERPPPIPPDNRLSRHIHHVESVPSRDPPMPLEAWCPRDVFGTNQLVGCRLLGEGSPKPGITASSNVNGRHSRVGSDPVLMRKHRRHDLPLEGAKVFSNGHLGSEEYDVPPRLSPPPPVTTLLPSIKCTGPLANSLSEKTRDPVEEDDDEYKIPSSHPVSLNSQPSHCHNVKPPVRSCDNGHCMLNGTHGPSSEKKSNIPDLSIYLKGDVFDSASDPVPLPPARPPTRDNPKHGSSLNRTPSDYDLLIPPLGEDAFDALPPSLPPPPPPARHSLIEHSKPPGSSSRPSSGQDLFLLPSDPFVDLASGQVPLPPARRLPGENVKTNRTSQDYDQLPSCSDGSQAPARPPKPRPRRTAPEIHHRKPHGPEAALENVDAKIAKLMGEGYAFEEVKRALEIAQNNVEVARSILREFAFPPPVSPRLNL
UniProt Q6NZI2: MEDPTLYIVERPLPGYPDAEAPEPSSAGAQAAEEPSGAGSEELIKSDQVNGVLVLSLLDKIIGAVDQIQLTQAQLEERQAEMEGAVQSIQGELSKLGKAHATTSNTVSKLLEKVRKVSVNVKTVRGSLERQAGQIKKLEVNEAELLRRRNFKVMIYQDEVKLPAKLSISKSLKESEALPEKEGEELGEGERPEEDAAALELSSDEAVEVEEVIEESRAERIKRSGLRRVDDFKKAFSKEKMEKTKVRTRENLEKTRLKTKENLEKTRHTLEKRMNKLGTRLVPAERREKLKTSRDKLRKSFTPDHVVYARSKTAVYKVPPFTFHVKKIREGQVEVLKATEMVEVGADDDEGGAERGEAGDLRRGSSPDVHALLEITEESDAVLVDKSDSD
UniProt O95273: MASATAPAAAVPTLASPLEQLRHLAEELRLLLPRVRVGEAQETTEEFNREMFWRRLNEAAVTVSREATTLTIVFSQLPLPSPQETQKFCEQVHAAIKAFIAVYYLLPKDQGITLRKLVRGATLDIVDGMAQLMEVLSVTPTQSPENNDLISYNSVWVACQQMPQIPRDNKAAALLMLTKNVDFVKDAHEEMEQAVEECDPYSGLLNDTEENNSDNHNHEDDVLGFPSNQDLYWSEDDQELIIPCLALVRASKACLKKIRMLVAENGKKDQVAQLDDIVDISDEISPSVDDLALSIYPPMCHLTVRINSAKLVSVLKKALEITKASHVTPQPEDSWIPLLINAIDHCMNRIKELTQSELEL
UniProt O14618: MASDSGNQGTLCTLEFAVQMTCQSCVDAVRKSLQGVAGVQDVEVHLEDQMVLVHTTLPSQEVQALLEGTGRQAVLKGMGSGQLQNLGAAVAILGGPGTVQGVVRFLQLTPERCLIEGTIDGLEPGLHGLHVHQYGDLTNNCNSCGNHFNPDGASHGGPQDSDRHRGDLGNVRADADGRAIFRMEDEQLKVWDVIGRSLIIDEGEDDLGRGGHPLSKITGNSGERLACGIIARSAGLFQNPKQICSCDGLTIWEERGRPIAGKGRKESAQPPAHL
UniProt Q16204: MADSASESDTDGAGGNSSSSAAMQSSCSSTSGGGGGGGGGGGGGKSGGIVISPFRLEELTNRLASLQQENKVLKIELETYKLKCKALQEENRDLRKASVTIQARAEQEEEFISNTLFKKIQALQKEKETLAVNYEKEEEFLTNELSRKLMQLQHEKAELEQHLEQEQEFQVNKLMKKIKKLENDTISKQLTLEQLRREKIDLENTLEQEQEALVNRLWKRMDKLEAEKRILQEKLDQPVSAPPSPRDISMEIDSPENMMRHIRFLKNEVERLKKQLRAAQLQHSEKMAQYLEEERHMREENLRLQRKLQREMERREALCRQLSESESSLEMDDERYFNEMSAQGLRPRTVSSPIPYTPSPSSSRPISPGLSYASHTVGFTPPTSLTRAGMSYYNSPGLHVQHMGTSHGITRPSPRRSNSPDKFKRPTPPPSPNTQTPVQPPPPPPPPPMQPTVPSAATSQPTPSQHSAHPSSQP
UniProt P48643, whole entry, looked up: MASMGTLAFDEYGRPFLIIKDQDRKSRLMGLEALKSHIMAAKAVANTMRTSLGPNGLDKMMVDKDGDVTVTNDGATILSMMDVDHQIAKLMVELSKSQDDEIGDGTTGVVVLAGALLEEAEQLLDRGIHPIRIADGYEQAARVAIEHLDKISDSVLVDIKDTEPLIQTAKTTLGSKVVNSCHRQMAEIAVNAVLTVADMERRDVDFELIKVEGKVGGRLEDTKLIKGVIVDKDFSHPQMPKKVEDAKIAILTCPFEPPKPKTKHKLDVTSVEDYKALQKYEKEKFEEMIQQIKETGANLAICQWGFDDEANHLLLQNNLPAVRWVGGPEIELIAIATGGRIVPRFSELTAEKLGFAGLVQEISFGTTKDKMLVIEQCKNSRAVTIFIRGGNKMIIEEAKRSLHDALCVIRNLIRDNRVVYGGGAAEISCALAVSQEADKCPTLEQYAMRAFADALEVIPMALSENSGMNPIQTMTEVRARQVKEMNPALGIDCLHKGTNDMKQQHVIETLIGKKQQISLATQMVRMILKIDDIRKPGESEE
UniProt O95067, whole entry, looked up: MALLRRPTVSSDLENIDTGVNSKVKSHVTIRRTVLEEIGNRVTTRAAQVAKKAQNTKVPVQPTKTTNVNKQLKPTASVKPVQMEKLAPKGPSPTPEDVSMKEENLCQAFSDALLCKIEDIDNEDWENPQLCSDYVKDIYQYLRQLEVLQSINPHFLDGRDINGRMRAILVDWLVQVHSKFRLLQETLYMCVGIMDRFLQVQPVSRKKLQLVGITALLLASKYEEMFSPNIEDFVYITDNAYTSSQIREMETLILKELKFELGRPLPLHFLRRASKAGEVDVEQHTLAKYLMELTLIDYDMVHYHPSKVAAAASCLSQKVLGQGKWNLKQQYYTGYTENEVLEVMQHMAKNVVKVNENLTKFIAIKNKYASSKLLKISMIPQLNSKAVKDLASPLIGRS
UniProt Q13185: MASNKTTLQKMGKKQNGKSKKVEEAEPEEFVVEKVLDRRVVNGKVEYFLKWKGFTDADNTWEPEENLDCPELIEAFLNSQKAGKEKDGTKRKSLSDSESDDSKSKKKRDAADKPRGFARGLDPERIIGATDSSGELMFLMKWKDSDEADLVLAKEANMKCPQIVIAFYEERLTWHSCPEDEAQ
UniProt P14635, whole entry, looked up: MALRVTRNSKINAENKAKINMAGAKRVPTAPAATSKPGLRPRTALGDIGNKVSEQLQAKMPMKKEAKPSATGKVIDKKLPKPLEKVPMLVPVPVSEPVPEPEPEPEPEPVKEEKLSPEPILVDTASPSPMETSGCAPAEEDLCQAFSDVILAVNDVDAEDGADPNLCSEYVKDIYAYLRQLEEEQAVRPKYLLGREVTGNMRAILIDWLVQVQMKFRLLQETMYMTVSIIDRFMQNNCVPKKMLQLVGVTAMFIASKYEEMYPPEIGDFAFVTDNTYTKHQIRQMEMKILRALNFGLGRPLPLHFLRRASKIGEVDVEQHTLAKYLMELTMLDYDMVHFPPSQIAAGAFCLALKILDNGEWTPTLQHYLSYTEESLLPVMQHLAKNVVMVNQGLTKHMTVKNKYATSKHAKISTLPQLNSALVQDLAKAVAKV
UniProt P04040: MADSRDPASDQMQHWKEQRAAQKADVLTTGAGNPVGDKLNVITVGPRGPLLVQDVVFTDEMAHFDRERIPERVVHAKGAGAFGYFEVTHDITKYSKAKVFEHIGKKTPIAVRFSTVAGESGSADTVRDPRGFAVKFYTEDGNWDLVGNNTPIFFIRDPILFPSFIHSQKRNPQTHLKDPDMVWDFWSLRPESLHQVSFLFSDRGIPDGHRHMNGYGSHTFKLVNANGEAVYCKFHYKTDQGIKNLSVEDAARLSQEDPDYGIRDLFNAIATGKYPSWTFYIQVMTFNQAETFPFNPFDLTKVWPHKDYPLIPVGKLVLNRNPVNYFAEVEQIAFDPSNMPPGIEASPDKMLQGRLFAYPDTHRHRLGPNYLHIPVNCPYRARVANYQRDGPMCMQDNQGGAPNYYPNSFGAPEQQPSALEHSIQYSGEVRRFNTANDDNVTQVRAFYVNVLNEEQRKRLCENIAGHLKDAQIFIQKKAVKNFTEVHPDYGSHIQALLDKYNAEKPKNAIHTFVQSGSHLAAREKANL
UniProt P55211: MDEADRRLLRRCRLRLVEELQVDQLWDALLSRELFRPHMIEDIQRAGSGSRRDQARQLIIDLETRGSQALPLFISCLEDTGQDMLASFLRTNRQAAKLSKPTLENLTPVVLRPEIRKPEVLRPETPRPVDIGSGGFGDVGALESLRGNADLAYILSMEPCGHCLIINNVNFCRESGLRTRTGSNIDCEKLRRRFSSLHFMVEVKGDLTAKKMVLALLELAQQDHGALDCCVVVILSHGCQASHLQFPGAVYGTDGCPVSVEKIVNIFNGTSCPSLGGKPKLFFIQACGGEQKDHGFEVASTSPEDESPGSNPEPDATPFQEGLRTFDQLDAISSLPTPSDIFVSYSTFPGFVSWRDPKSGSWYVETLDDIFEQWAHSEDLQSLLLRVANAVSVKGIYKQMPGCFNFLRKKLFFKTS
UniProt Q4VC31: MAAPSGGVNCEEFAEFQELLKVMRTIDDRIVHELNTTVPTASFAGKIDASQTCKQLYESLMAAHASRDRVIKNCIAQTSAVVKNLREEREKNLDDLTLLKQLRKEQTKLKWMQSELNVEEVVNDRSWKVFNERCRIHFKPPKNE
UniProt Q08722, whole entry, looked up: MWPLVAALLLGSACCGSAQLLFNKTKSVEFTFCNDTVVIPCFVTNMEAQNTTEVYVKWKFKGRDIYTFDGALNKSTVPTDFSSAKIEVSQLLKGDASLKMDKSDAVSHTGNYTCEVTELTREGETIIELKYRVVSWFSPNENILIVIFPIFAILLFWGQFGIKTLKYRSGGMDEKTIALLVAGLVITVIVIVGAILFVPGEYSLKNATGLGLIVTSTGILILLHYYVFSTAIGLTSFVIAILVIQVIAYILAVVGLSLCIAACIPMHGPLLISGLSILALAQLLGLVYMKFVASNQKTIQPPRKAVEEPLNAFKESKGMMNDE
UniProt O75909: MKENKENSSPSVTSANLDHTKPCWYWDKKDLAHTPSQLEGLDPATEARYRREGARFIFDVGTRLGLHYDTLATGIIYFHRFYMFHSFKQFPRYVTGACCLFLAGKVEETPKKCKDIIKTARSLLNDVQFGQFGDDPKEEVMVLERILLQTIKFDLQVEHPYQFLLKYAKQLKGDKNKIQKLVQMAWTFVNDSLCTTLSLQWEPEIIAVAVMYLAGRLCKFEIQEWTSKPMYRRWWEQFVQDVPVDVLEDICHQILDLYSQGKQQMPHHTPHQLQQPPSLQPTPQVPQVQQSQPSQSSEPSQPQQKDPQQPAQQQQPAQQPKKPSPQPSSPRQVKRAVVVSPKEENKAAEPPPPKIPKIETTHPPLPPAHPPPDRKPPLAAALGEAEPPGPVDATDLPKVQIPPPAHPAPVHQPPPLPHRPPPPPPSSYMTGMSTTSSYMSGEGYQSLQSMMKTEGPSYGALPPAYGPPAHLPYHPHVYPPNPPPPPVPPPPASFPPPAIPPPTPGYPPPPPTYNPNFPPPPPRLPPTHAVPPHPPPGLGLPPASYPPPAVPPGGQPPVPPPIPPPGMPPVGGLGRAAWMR
UniProt Q8WUD4: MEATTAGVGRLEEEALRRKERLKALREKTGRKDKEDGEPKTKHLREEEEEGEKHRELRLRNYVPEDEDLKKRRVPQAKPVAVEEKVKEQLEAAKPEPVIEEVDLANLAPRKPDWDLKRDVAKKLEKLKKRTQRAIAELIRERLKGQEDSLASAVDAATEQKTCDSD

The targets below were run with Cn1cncc1[C@@](N)(c1ccc(Cl)cc1)c1ccc2c(c1)c(-c1cccc(Cl)c1)cc(=O)n2C [tipifarnib] (assay: log2 fold change, soluble protein after heating vs DMSO (PISA); higher = thermal stabilisation; K562 lysate, 10 uM; active = over 0.2 and 3.5 SD of the protein, either way, in both replicates (recomputed)).
Outline: (§1)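 A 30 min treatment with 10 μM compound was applied to crude K562 extract at 1 mg/mL protein in PBS pH 7.4 with 1 mM MgCl2. Heating for 3 min spanned 48°C-58°C, after which aliquots were pooled, adjusted to 0.5% NP-40 at 4°C and spun at 21,000xg for 90 min. TMTpro 16plex LC-MS/MS of the supernatant, with channel sums equalised, gave values recorded as log-two fold change in thermal stability against solvent controls, from duplicates.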
In the case of CCDC88A (UniProt Q3V6T2), the log2 fold change is reported as inactive: -0.017. With CCDC88C (UniProt Q9P219) the log2 fold change was inactive: 0.007. For CCDC22 (UniProt O60826), the log2 fold change was inactive: 0.012. In the case of CCDC97 (UniProt Q96F63), the log2 fold change is reported as inactive: 0.042. With CCNYL1 (UniProt Q8N7R7) the log2 fold change was inactive: -0.08. CBLB (UniProt Q13191) was tested, and the log2 fold change was inactive: -0.023. In the case of CAVIN1 (UniProt Q6NZI2), the log2 fold change is reported as inactive: 0.051. CBWD5 (UniProt Q5RIA9) was tested, and the log2 fold change was inactive: -0.013. CARS2 (UniProt Q9HA77) was tested, and the log2 fold change was inactive: -0.008. CCAR1 (UniProt Q8IX12) was tested, and the log2 fold change was inactive: -0.028. For CCNDBP1 (UniProt O95273), the log2 fold change was inactive: -0.018. For CCS (UniProt O14618), the log2 fold change was inactive: -0.016. For CD151 (UniProt P48509), the log2 fold change was inactive: -0.011. For CCDC6 (UniProt Q16204), the log2 fold change was inactive: 0.002. CCDC117 (UniProt Q8IWD4) was tested, and the log2 fold change was inactive: 0.006. In the case of CCT5 (UniProt P48643), the log2 fold change is reported as inactive: 0.023. For CARHSP1 (UniProt Q9Y2V2), the log2 fold change was inactive: 0.035.

These targets were tested with NC(=O)Nc1cc(-c2cccc(F)c2)sc1C(=O)N[C@H]1CCCNC1 in the same assay as above.
Outline: as §1
CD46 isoform 2 (UniProt P15529) was tested, and the log2 fold change was inactive: 0.058. For CCNB2 (UniProt O95067), the log2 fold change was inactive: 0.012. CBX3 (UniProt Q13185) was tested, and the log2 fold change was inactive: -0.052. In the case of CCT2 (UniProt P78371), the log2 fold change is reported as inactive: -0.023. With CASP3 (UniProt P42574) the log2 fold change was inactive: 0. In the case of CCNB1 (UniProt P14635), the log2 fold change is reported as inactive: 0.005. For CAT (UniProt P04040), the log2 fold change was inactive: -0.006. For CCT6A (UniProt P40227), the log2 fold change was inactive: -0.005. In the case of CASP9 (UniProt P55211), the log2 fold change is reported as inactive: 0.056. CCDC58 (UniProt Q4VC31) was tested, and the log2 fold change was inactive: 0.007. With CD47 (UniProt Q08722) the log2 fold change was inactive: 0. With CCNK isoform 4 (UniProt O75909) the log2 fold change was inactive: -0.006. In the case of CCDC12 (UniProt Q8WUD4), the log2 fold change is reported as inactive: -0.053. With CCDC93 (UniProt Q567U6) the log2 fold change was inactive: 0.081. For CBX4 (UniProt O00257), the log2 fold change was inactive: 0.002. CCDC25 (UniProt Q86WR0) was tested, and the log2 fold change was inactive: 0. With CCDC88A (UniProt Q3V6T2) the log2 fold change was inactive: 0.031. With CCDC88C (UniProt Q9P219) the log2 fold change was inactive: -0.003. With CCDC22 (UniProt O60826) the log2 fold change was inactive: 0.041. For CCDC97 (UniProt Q96F63), the log2 fold change was inactive: 0.017. With CCNYL1 (UniProt Q8N7R7) the log2 fold change was inactive: 0.008. For CBLB (UniProt Q13191), the log2 fold change was inactive: 0.033. With CAVIN1 (UniProt Q6NZI2) the log2 fold change was inactive: 0.009. CBWD5 (UniProt Q5RIA9) was tested, and the log2 fold change was inactive: 0.022. CARS2 (UniProt Q9HA77) was tested, and the log2 fold change was inactive: -0.006. In the case of CCAR1 (UniProt Q8IX12), the log2 fold change is reported as inactive: 0.007. CCNDBP1 (UniProt O95273) was tested, and the log2 fold change was inactive: 0.055. For CCS (UniProt O14618), the log2 fold change was inactive: -0.042. For CD151 (UniProt P48509), the log2 fold change was inactive: 0.015. With CCDC6 (UniProt Q16204) the log2 fold change was inactive: -0.008. For CCDC117 (UniProt Q8IWD4), the log2 fold change was inactive: 0.009. CCT5 (UniProt P48643) was tested, and the log2 fold change was inactive: -0.024. In the case of CARHSP1 (UniProt Q9Y2V2), the log2 fold change is reported as inactive: -0.034.
